Test results taken from PMC6251808.
These are yes or no findings as the source states them, for the method shown. For some of these results: In cells and extracts the contact can be indirect. Some results given as binding are weak or reduced against the parent protein; the word gives no strength. For some of these results: Sequences can lack the tags named with a protein.

Columns and labels:
[1] = biological target: T1, Wnt1 (endogenous, human skin fibroblasts) (human (endogenous in human fibroblasts)) (UniProt P04628); assay: co-IP; endogenous proteins in human fibroblast cells; precipitated with anti-Wnt1 or anti-CD146 antibody AA1, mIgG as control
T1 sequence: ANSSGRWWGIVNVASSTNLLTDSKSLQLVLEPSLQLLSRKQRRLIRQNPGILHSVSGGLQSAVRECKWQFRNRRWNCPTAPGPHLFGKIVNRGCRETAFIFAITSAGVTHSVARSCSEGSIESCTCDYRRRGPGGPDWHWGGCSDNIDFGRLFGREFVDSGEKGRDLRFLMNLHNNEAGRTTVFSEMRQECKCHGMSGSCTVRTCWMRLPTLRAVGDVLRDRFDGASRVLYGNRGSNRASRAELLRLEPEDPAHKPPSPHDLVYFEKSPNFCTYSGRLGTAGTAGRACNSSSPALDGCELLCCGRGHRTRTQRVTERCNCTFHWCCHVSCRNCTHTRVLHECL

[2] = biological target: T2, Wnt1 (construct not stated) (UniProt P04628); assay: ELISA; increasing concentration of Fc-CD146 on Wnt1; absorption at 450 nm
T2 sequence: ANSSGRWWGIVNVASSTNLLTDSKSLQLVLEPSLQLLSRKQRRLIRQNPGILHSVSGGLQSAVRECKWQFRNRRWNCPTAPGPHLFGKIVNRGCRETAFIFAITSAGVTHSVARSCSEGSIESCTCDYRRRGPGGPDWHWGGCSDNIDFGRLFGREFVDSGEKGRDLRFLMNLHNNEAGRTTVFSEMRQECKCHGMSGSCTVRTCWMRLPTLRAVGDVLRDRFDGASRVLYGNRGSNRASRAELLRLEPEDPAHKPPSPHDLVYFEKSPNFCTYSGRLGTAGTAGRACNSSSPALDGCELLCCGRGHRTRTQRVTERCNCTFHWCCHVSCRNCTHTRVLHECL

[3] = biological target: T3, CD146 (endogenous, human skin fibroblasts) (human (endogenous in human fibroblasts)) (UniProt P43121); assay: co-IP; endogenous proteins in human fibroblast cells; precipitated with anti-Wnt1 or anti-CD146 antibody AA1, mIgG as control
T3 sequence: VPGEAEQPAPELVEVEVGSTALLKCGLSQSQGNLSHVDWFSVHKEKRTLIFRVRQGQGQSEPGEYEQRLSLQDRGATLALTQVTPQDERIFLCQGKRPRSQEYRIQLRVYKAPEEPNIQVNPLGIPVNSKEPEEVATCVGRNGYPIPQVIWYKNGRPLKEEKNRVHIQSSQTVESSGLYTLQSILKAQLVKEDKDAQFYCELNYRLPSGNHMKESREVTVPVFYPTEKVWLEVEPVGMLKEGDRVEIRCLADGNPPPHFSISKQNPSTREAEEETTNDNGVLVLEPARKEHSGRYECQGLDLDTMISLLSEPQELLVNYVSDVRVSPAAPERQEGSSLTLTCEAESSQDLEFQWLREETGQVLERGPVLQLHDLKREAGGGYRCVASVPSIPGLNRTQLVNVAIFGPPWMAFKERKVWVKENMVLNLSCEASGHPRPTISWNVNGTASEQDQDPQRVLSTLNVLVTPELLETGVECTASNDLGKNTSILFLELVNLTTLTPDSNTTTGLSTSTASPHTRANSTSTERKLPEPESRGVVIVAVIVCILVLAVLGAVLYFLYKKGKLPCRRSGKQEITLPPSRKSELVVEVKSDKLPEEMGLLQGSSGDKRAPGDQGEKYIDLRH

Flag-CD146 = biological target: T4, Flag-CD146 (UniProt P43121); assay: co-IP; HEK293 (text: HEK293T) cells co-transfected with Myc-Wnt1 and Flag-CD146; precipitated with anti-Flag mAb M2
T4 sequence: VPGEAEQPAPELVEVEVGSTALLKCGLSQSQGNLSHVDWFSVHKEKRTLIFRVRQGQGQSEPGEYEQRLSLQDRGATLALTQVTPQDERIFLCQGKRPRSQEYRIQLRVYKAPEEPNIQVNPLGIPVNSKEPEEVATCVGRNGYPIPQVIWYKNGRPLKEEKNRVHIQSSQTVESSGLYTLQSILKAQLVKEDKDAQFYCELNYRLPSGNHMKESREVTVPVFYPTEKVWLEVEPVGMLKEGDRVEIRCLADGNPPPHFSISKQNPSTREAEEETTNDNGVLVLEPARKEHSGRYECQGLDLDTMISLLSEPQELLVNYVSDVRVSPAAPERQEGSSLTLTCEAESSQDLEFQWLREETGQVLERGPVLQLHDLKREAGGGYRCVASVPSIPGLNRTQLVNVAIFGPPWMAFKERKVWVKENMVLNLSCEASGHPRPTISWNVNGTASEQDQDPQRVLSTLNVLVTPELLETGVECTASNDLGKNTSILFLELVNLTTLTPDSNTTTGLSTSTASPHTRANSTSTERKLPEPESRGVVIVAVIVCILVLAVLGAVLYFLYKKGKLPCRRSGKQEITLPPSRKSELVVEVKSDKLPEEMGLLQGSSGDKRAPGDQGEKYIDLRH

[4] = biological target: T5, Fc-CD146 (CD146 extracellular domain) (UniProt P43121); assay: pull-down; in vitro Fc pull-down with Fc-CD146 (extracellular domain) or Fc alone and Myc-Wnt1
T5 sequence: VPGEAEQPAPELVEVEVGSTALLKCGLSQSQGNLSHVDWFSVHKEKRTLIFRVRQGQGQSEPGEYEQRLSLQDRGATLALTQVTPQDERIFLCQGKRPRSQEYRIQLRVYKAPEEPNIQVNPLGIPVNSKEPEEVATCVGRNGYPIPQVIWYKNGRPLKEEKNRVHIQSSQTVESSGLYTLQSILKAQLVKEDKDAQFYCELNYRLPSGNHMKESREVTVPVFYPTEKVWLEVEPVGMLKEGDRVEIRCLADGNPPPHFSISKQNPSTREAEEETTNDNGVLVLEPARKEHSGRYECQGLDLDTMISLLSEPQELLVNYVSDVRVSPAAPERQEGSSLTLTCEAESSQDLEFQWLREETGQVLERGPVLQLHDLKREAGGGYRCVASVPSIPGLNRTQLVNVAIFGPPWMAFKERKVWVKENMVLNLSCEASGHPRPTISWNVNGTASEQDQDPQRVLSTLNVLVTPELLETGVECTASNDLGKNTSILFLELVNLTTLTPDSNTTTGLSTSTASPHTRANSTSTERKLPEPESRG

[5] = biological target: T6, CD146 (construct not stated) (UniProt P43121); assay: co-IP; co-IP of CD146 and Wnt1 with anti-CD146 mAb AA98 or AA1
T6 sequence: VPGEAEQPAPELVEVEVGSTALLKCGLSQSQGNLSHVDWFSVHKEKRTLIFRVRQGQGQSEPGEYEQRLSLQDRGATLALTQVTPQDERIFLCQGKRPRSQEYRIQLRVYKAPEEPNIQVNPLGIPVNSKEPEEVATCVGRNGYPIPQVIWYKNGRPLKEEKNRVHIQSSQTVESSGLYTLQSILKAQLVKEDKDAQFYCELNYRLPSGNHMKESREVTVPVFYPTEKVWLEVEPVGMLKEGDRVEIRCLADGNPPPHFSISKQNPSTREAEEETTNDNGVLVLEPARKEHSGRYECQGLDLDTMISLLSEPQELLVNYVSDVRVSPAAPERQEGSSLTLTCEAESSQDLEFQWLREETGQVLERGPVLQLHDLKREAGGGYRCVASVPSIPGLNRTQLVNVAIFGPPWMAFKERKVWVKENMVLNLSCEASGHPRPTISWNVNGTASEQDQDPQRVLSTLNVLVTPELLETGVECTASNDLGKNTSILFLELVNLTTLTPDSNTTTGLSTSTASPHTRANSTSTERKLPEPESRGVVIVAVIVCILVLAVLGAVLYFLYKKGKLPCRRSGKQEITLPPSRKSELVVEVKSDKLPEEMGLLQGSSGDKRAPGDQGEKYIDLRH

[6] = biological target: T6, CD146 (construct not stated); assay: pull-down; His-tag pull-down of Wnt1 and CD146, with anti-CD146 AA98

Molecule: CD146 (endogenous, human skin fibroblasts) (from UniProt P43121 24-646) (receptor)
- binding [1]: binds

Molecule: Fc-CD146 (CD146 extracellular domain) (from UniProt P43121 24-559) (Fc fusion)
- binding [2]: binds

B1: Wnt1 (endogenous, human skin fibroblasts) (ligand, UniProt P04628 28-370)
chain: ANSSGRWWGIVNVASSTNLLTDSKSLQLVLEPSLQLLSRKQRRLIRQNPGILHSVSGGLQSAVRECKWQFRNRRWNCPTAPGPHLFGKIVNRGCRETAFIFAITSAGVTHSVARSCSEGSIESCTCDYRRRGPGGPDWHWGGCSDNIDFGRLFGREFVDSGEKGRDLRFLMNLHNNEAGRTTVFSEMRQECKCHGMSGSCTVRTCWMRLPTLRAVGDVLRDRFDGASRVLYGNRGSNRASRAELLRLEPEDPAHKPPSPHDLVYFEKSPNFCTYSGRLGTAGTAGRACNSSSPALDGCELLCCGRGHRTRTQRVTERCNCTFHWCCHVSCRNCTHTRVLHECL
- binding [3]: binds

B2: Myc-Wnt1 (ligand, UniProt P04628 28-370)
chain: ANSSGRWWGIVNVASSTNLLTDSKSLQLVLEPSLQLLSRKQRRLIRQNPGILHSVSGGLQSAVRECKWQFRNRRWNCPTAPGPHLFGKIVNRGCRETAFIFAITSAGVTHSVARSCSEGSIESCTCDYRRRGPGGPDWHWGGCSDNIDFGRLFGREFVDSGEKGRDLRFLMNLHNNEAGRTTVFSEMRQECKCHGMSGSCTVRTCWMRLPTLRAVGDVLRDRFDGASRVLYGNRGSNRASRAELLRLEPEDPAHKPPSPHDLVYFEKSPNFCTYSGRLGTAGTAGRACNSSSPALDGCELLCCGRGHRTRTQRVTERCNCTFHWCCHVSCRNCTHTRVLHECL
- binding (Flag-CD146): binds
- binding [4]: binds

B3: Wnt1 (construct not stated) (ligand, UniProt P04628 28-370)
chain: ANSSGRWWGIVNVASSTNLLTDSKSLQLVLEPSLQLLSRKQRRLIRQNPGILHSVSGGLQSAVRECKWQFRNRRWNCPTAPGPHLFGKIVNRGCRETAFIFAITSAGVTHSVARSCSEGSIESCTCDYRRRGPGGPDWHWGGCSDNIDFGRLFGREFVDSGEKGRDLRFLMNLHNNEAGRTTVFSEMRQECKCHGMSGSCTVRTCWMRLPTLRAVGDVLRDRFDGASRVLYGNRGSNRASRAELLRLEPEDPAHKPPSPHDLVYFEKSPNFCTYSGRLGTAGTAGRACNSSSPALDGCELLCCGRGHRTRTQRVTERCNCTFHWCCHVSCRNCTHTRVLHECL
- binding [5]: binds
- binding [6]: binds
